Data: patent publication US20260152565A1 (Dana-Farber, published 2026)
These are yes or no findings as the source states them, for the method shown. Some entries that bind do so weakly or less than the wild type.

By UniProt entry, the sequences of proteins in these tests, tags left out. Where a name states a change or a piece, a line headed by the entry shows the natural chain unless it says otherwise.
UniProt Q02223: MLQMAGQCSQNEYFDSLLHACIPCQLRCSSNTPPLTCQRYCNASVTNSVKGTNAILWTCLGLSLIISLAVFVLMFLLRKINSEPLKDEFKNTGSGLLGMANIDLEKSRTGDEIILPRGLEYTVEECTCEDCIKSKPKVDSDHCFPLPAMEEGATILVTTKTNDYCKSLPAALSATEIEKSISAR

What was measured:
[1] = biological target: cynomolgus monkey BCMA expressed on HEK 293T cells (cynomolgus monkey); assay: binding to HEK 293T-cyno BCMA cells
[2] = biological target: cynomolgus monkey BCMA expressed on HEK 293T cells (cynomolgus monkey); assay: cell binding, MFI against antibody concentration, panel title Bind to HEK293T - cyno BCMA
[3] = biological target: BCMA on cells, species not stated (Homo sapiens (Human)) (UniProt Q02223); assay: binding to NCI-H9292 cells
[4] = biological target: BCMA on cells, species not stated (Homo sapiens (Human)) (UniProt Q02223); assay: cell binding, MFI against antibody concentration, panel title Bind to NCI-H929 cell
[5] = biological target: BCMA on cells, species not stated (Homo sapiens (Human)) (UniProt Q02223); assay: competition: blocking of BAFF binding to BCMA, OD450 against antibody concentration in nM, panel title Blocking of BAFF to BCMA

Binder | binding [1] | binding [2] | binding [3] | binding [4] | binding [5]
PR000943 (antibody, V domains shown, also called HCAb antibody PR000943; not shown: constant part (CH2 and CH3 regions of the Harbour HCAb format)) VH: EVQLVETGGGLIQPGGSLRLSCAASGFPVSSNYMSWVRQAPGKGLEWVSVIFSGGRTYYADSVKGRFTISRDNSKNTLYLQMNSLRAEDTAVYYCARRNWIDGRDAFDIWGQGTMVTVSS | binds | binds |  |  | 
PR000940 (antibody, V domains shown, Heavy chain-only antibody from Harbour HCAb mice: dimer of two heavy chains, each with VH, CH2 and CH3; also called HCAb antibody PR000940; not shown: constant part (CH2 and CH3 regions of the Harbour HCAb format)) VH: EVQLLESGGGLVQPGGSLRLSCAASGFTFSSYAMIWVRQAPGKGLEWVSGISESGGSTYYADSVKGRFTISRDNSKNTLYLQMNSLRAEDTAVYFCVKDLDDILTGYYKDYWGQGTLVTVSS |  |  | binds | binds | binds
